# Measured values reported in patent publication US12084479B2, “Modified antimicrobial peptide derived from an arginine-rich domain” (priority 2016, dated 2024).
# Part of at least one peptide drawing is inferred or uncertain, most often the ends. Where a SMILES comes first, the peptide text is derived from it. Where no end group is shown, it is not given here. [ ]: non-standard residue; d: D form.
# Tests used:
# S. aureus ATCC 19636 [1] = experiment: Mouse sepsis model infected with S. aureus, in vivo protection efficacy; design: species or system ICR mice; settings: S. aureus 4×10^6 CFU/mouse i.p., monitored 7 days
# Experimental: To investigate the in vivo protection efficacy of the 37-mer L- and D-HBcARD peptides, we performed a mouse sepsis model infected with S. aureus. ICR mice were first i.p. inoculated with S. aureus (4×10^6 CFU/mouse), followed by one single i.p. injection of L-HBcARD, D-HBcARD and PBS at two hours post-inoculation, respectively. All mice (n=10) administered with PBS died at day 1. See FIG. 4, A. At 7 days post-inoculation, 40% of mice treated with L-HBcARD (10 mg/kg) survived. See FIG. 4, A. In contrast, D-HBcARD peptide was able to achieve a much higher survival rate (60% for 5 mg/kg dose, and 100% for 10 mg/kg dose).
# We compared the in vivo protection efficacy of HBcARD 150-177C peptides (28-mer) containing either D-form or L-form arginines. ICR mice (n=10/group) were ip. inoculated with S. aureus ATCC19636 (4×10^6/mouse), followed by treatment with modified peptides at two hours post-inoculation. All PBS control mice died on day 1, and only 20% of the mice treated with control peptide (150-177Q) survived. Administration of L-150-177C peptide at the dose of 5 and 10 mg/kg protected 30% and 70% mice from death, respectively. When treated with 5 mg/kg of D-150-177C, all mice (100%) survived.
# Three-week old male ICR mice (19 to 21 g) were purchased from BioLASCO (Taiwan). To test the in vivo protection efficacy of the HBcARD peptides, all mice were inoculated intraperitoneally with S. aureus ATCC 19636 (4×10^6 CFU/mouse). HBc147-183 (L- or D-HBcARD) or the PBS control was administered intraperitoneally at 2 hours after bacterial inoculation, respectively. Each group contained 10 mice. Mortality was monitored daily for 7 days following the bacterial inoculation.
# S. aureus ATCC 19636 [2] = experiment: Immunogenicity: sepsis model in peptide-immunized mice; type: in vivo, ICR mice; settings: immunized 5 mg/kg at day 0, 3, 6; S. aureus at day 14; 10 mg/kg i.p. 1 hour post-inoculation; 7 days
# Experimental: FIG. 4 is a set of graphs showing comparison of in vivo protection activities between L- and D-form HBcARD peptides in a mouse sepsis model infected with S. aureus. (A) Three week-old ICR mice were inoculated with S. aureus (4×10^6 CFU/mouse) and i.p. injected with PBS, L-HBcARD, or D-HBcARD at 2 hours post-inoculation. Each group contained ten mice. (B) and (C) Three week-old ICR mice were immunized with L- and D-HBcARD peptides (5 mg/kg), respectively, at day 0, 3 and 6. On day 14, the mice were inoculated with S. aureus (4×10^6 CFU/mouse) and i.p. injected with PBS, L-HBcARD or D-HBcARD (10 mg/kg) at 1 hour post-inoculation, respectively. Another group of mice were treated with PBS in parallel as a control. Each group of animals contained five mice. *P<0.05; ***P<0.0001; ns, no significance.
# To investigate whether repeated treatments with the 37-mer HBcARD peptides may compromise the efficacy by inducing neutralization antibody in vivo, we immunized 3-week old mice three times with L- and D-HBcARD peptides, respectively, prior to bacterial infection. […]
# To investigate the potential immunogenicity of HBcARD peptides, we determined the in vivo antimicrobial activity of HBcARD peptide in peptide-immunized mice. […] Mortality was monitored daily for 7 days following the bacterial inoculation.
# E. coli = type: cell-based, Escherichia coli; settings: E. coli ATCC 25922
# Experimental: (§1) The antimicrobial activities of HBcARD peptides were tested using a number of bacterial strains, including Pseudomonas aeruginosa Migula strains (ATCC 27853, ampicillin-resistant and ATCC 9027, ampicillin-resistant), Klebsiella pneumoniae strain (ATCC 13884), Shigella dysenteriae Xen27 (Caliper Co.), Escherichia coli strain (ATCC 25922), Staphylococcus aureus subsp. strains (ATCC 25923, methicillin-resistantATCC 29213, methicillin-resistant and ATCC 19636, methicillin-resistant) and Acinetobacter baumannii strains (ATCC 17978, ATCC 17978 CR, ATCC19606, ATCC 19606 CR, TCGH 45530 and TCGH 46709). Clinical isolates TCGH 45530 and TCGH 46709 were obtained from Tzu-Chi Buddhist General Hospital (TCGH) in Taiwan, and were identified using the Vitek system (Biomerieux Vitek, Inc., Hazelwood, MO, USA). See Chang et al. (2012), J Microbiol Immunol Infect 45:37-42 doi:10.1016/j.jmii.2011.09.019.
# (§2) L- and D-HBcARD peptides were purchased from Yao-Hong Biotechnology Inc. (Taipei, Taiwan). Antimicrobial activity was determined as described. See, Chen et al., 2013. Briefly, bacteria were grown in MH broth (Difco) to mid-logarithmic phase at 37° C., and were diluted to 10^6 CFU (colony formation unit)/ml in phosphate buffer (10 mM sodium phosphate and 50 mM sodium chloride, pH 7.2). Peptides were serially diluted in the same buffer. […]
# K. pneumoniae = type: cell-based, Klebsiella pneumoniae; settings: K. pneumoniae ATCC 13884
# Experimental: as §1, §2
# P. aeruginosa = type: cell-based, Pseudomonas aeruginosa; settings: over the strains tested
# Experimental: as §1, §2
# S. aureus ATCC19636 = experiment: Antimicrobial activity with or without 5% mouse serum, colony formation assay; type: cell-based, Staphylococcus aureus; settings: for killing of S. aureus in the MBC assay: 18.4 mg/L peptide, without serum; for bacterial colonies after peptide treatment: in the presence of 5% mouse serum, peptide at MBC concentration, 37° C., 3 hours
# [3] = tested on: colistin-resistant A. baumannii TCGH 46709; experiment: Mouse lung infection model, intra-tracheal inoculation; type: in vivo, BALB/c mice
# Experimental: FIG. 6 is a graph showing in vivo protection efficacies of 150-177C and 150-177Q peptides in a BALB/c mouse lung infection model. Colistin-resistant A. baumannii was inoculated via intra-tracheal route.
# BALB/c mice (n=8/group) were intra-tracheally inoculated with colistin-resistant A. baumannii TCGH 46709 (3.4×10^8 cfu/mouse). These lung-infected mice were ip. treated with colistin (5 mg/kg/day) or D-150-177C (5 and 10 mg/kg/day), respectively.
# S. aureus ATCC 19636 [4] = settings: injection at 2 hour postinoculation; Chen et al. (2013); cited from earlier work
# [5] = 10 mg/kg single i.p. injection 2 hours post-inoculation
Compound,survival (mice protected from death) (S. aureus ATCC 19636 [1]; 5 mg/kg single i.p. injection 2 hours post-inoculation) [%],survival (mice protected from death) (S. aureus ATCC 19636 [1]; [5]) [%],survival of immunized mice after bacterial challenge (S. aureus ATCC 19636 [2]),Minimal bactericidal concentration (E. coli) [µg/mL],Minimal bactericidal concentration (K. pneumoniae) [µg/mL],MBC (P. aeruginosa) [µg/mL],killing of S. aureus in the MBC assay (S. aureus ATCC19636),bacterial colonies after peptide treatment (S. aureus ATCC19636),potency relative to L-HBcARD in MBC assay (S. aureus ATCC19636; with 5% mouse serum (FIG. 2 D)),"protection, difference observed ([3]; 10 mg/kg/day ip., p<0.05)",protection effect ([3]; 5 and 10 mg/kg/day ip.),S. aureus-infected mice protected from death (S. aureus ATCC 19636 [4]) [%]
"CC(C)[C@H](NC(=O)[C@@H](NC(=O)[C@@H](N)[C@@H](C)O)C(C)C)C(=O)N[C@H](CCCNC(=N)N)C(=O)N[C@H](CCCNC(=N)N)C(=O)N[C@H](CCCNC(=N)N)C(=O)NCC(=O)N[C@H](CCCNC(=N)N)C(=O)N[C@@H](CO)C(=O)N1CCC[C@H]1C(=O)N[C@H](CCCNC(=N)N)C(=O)N[C@H](CCCNC(=N)N)C(=O)N[C@H](CCCNC(=N)N)C(=O)N[C@H](C(=O)N1CCC[C@H]1C(=O)N[C@@H](CO)C(=O)N1CCC[C@H]1C(=O)N[C@H](CCCNC(=N)N)C(=O)N[C@H](CCCNC(=N)N)C(=O)N[C@H](CCCNC(=N)N)C(=O)N[C@H](CCCNC(=N)N)C(=O)N[C@@H](CO)C(=O)N[C@@H](CCC(N)=O)C(=O)N[C@@H](CO)C(=O)N1CCC[C@H]1C(=O)N[C@H](CCCNC(=N)N)C(=O)N[C@H](CCCNC(=N)N)C(=O)N[C@H](CCCNC(=N)N)C(=O)N[C@H](CCCNC(=N)N)C(=O)N[C@@H](CO)C(=O)N[C@@H](CCC(N)=O)C(=O)N[C@@H](CO)C(=O)N[C@H](CCCNC(=N)N)C(=O)N[C@@H](CCC(=O)O)C(=O)N[C@@H](CO)C(=O)N[C@@H](CCC(N)=O)C(=O)N[C@@H](CS)C(=O)O)[C@@H](C)O [D-HBcARD, TVVrrrGrSPrrrTPSPrrrrSQSPrrrrSQSrESQC] (H-TVV[dR][dR][dR]G[dR]SP[dR][dR][dR]TPSP[dR][dR][dR][dR]SQSP[dR][dR][dR][dR]SQS[dR]ESQC-OH; N-terminus and C-terminus assumed)",60,100,survived bacterial challenge,73.6,4.6,4.6,able to kill S. aureus,around 10^3 colonies,"10,000 fold",–,–,–
"C[C@@H](O)[C@H](NC(=O)[C@@H](CCCNC(=N)N)NC(=O)[C@@H](CCCNC(=N)N)NC(=O)[C@@H](CCCNC(=N)N)NC(=O)[C@@H]1CCCN1C(=O)[C@H](CO)NC(=O)[C@@H](CCCNC(=N)N)NC(=O)CNC(=O)[C@@H](CCCNC(=N)N)NC(=O)[C@@H](CCCNC(=N)N)NC(=O)[C@H](N)CCCNC(=N)N)C(=O)N1CCC[C@H]1C(=O)N[C@@H](CO)C(=O)N1CCC[C@H]1C(=O)N[C@H](CCCNC(=N)N)C(=O)N[C@H](CCCNC(=N)N)C(=O)N[C@H](CCCNC(=N)N)C(=O)N[C@H](CCCNC(=N)N)C(=O)N[C@@H](CO)C(=O)N[C@@H](CCC(N)=O)C(=O)N[C@@H](CO)C(=O)N1CCC[C@H]1C(=O)N[C@H](CCCNC(=N)N)C(=O)N[C@H](CCCNC(=N)N)C(=O)N[C@H](CCCNC(=N)N)C(=O)N[C@H](CCCNC(=N)N)C(=O)N[C@@H](CO)C(=O)N[C@@H](CS)C(=O)O [D-150-177C, rrrGrSPrrrTPSPrrrrSQSPrrrrSC] (H-[dR][dR][dR]G[dR]SP[dR][dR][dR]TPSP[dR][dR][dR][dR]SQSP[dR][dR][dR][dR]SC-OH; N-terminus and C-terminus assumed)",–,–,–,–,–,–,–,–,–,significant difference,dose-dependent protection effect,–
TVVRRRGRSPRRRTPSPRRRRSQSPRRRRSQSRESQC [L-HBcARD],–,40,protected all mice from death,–,–,–,able to kill S. aureus,10^7 colonies,–,–,–,40
